Assay results published in PubChem BioAssay AID540276 (National Center for Advancing Translational Sciences (NCATS), 2011).
In all, about 300,000 compounds went through this assay and about 5,400 (1.8%) were called active. Inconclusive means that the source gave no clear call. Such entries were picked first, then a sample of the others. Calls come from the whole dose curve; tested in HEK293 cells. A potency beside an inconclusive call is a rough fit, not a confirmed value.
Potency is the fitted concentration of half-maximal effect.

Test: qHTS for inhibitors of binding or entry into cells for Marburg Virus
Conditions: Marburg virus pseudotyped entry inhibition, cell reporter; series mostly up to 37.8 µM
In the case of `C/C(=N\NC(=O)c1ccccc1N)c1ccc(NC(=O)Cc2ccccc2)cc1`, the Potency is reported as “inactive”.
For `O=C1/C(=C\c2c(NCCOCCO)nc3ccccn3c2=O)SC(=S)N1Cc1ccco1`, the Potency was inconclusive: 17.8 µM [inhibitor, partial curve, poor fit].
In the case of `CCOc1ccc(-c2n[nH]c(C)c2Oc2ccccc2OC)c(O)c1`, the Potency is reported as inconclusive: 6.51 µM [inhibitor, partial curve].
In the case of `CCCN(CCC)CCNC(=O)c1cc2c(-c3ccc(Cl)cc3)nn(C)c2s1`, the Potency is reported as active: 3.98 µM.
In the case of `COc1ccc(NC(=O)c2cccnc2)c(OC)c1`, the Potency is reported as “inactive”.
With `CS(=O)(=O)N(Cc1ccccc1)c1ccc(C(=O)N2CCN(c3cccc(Cl)c3)CC2)cc1` the Potency was active: 13 µM.
With `Cc1cccc(C(=O)NNC2=CC(=O)CC(C)(C)C2)c1O` the Potency was “inactive”.
In the case of `COc1ccc(/C=C(\CC(=O)O)c2nc3ccccc3o2)cc1`, the Potency is reported as inconclusive: 35.5 µM [activator, partial curve, poor fit].
In the case of `CCOc1ccc2nc(NC(=O)CSc3nc4c(c(=O)n(C)c(=O)n4C)n3C(C)C)sc2c1`, the Potency is reported as inconclusive: 12.6 µM [inhibitor, partial curve].
In the case of `CCOc1ccccc1N1CC(C(=O)N(Cc2nnc(-c3ccccc3Cl)o2)C2CC2)CC1=O` (stereo unspecified), the Potency is reported as inconclusive: 0.316 µM [inhibitor, partial curve, poor fit].
For `CN(CCc1ccccc1)C1CCCN(S(=O)(=O)c2cccc(F)c2)C1` (stereo unspecified), the Potency was inconclusive: 35.5 µM [inhibitor, single point].
With `Cc1ccc(C(=O)Nc2cnc3ccccc3c2)cc1` the Potency was inconclusive: 0.282 µM [inhibitor, full curve, poor fit].
For `CC1(C)Cc2c(C#N)c(N3CCN(C(=O)c4ccccc4Cl)CC3)nc(-c3ccco3)c2CS1`, the Potency was “inactive”.
For `CCCOc1ccc(C2Nc3cccc4cccc(c34)N2)cc1`, the Potency was “inactive”.
In the case of `Cc1nc2cc(C(F)(F)F)ccc2n1C1CCN(CC(=O)NC(C)(C)C)CC1`, the Potency is reported as inconclusive: 32.6 µM [inhibitor, single point].
For `Cc1cc(C(=O)CN2CCC(C)CC2)c(C)n1-c1ccccc1F`, the Potency was inconclusive: 6.31 µM [inhibitor, partial curve, poor fit].
With `Cc1ccc(Nc2nc(N)c([N+](=O)[O-])c(NCc3ccco3)n2)cc1C` the Potency was inconclusive: 6.31 µM [activator, single point].
For `CCC(=O)NC(=S)Nc1ccc(NC(=O)c2ccc(OC)cc2)cc1`, the Potency was “inactive”.
In the case of `C=CCSc1nc2ccccc2n1S(=O)(=O)c1ccc(C)cc1`, the Potency is reported as inconclusive: 1 µM [activator, partial curve, poor fit].
In the case of `COC(=O)c1ccc2c(c1)S(=O)(=O)NC(=NCc1ccco1)S2`, the Potency is reported as inconclusive: 2.24 µM [inhibitor, partial curve, poor fit].
With `O=c1oc(-c2ccco2)nc2sc3c(c12)CCCC3` the Potency was inconclusive: 29.1 µM [inhibitor, partial curve, poor fit].
For `O=c1c2ccccc2cnn1Cc1n[nH]c(=S)n1-c1ccccc1F`, the Potency was inconclusive: 35.5 µM [activator, single point].
In the case of `COc1cc(CNCCO)cc(Br)c1OCc1cccs1`, the Potency is reported as inconclusive: 22.4 µM [inhibitor, single point].
For `COc1ccc(C(=O)OCCN2C(=O)c3ccccc3C2=O)cc1`, the Potency was inconclusive: 5.17 µM [inhibitor, single point].
In the case of `N#Cc1cc(C#N)c(N2CCN(c3cccc(Cl)n3)CC2)nc1N`, the Potency is reported as inconclusive: 32.6 µM [inhibitor, single point].
With `CCOC(=O)N1CCN(Cc2c(NC(=O)c3ccco3)sc(C)c2C)CC1` the Potency was “inactive”.
For `COc1ccc2nc(NC(=O)c3nc(S(=O)(=O)Cc4ccccc4)ncc3Cl)sc2c1`, the Potency was inconclusive: 35.5 µM [inhibitor, single point].
For `Cc1ccc(C(C(=O)NC(C)(C)C)N(Cc2ccccc2)C(=O)c2snc(C(N)=O)c2N)o1` (stereo unspecified), the Potency was inconclusive: 2.82 µM [inhibitor, full curve, poor fit].
In the case of `O=C(CSc1nnnn1C1CCCC1)NCCc1ccccc1`, the Potency is reported as inconclusive: 5.17 µM [activator, full curve, poor fit].
For `O=S(=O)(c1ccccc1)N1CCN=C1SCc1cccc(Cl)c1`, the Potency was inconclusive: 35.5 µM [inhibitor, single point].
For `O=C(c1cccc(S(=O)(=O)N2CCCCC2)c1)N1CCN(S(=O)(=O)c2ccc(F)cc2)CC1`, the Potency was “inactive”.
For `COCCNC(=O)C(c1ccc(C)cc1)N(C(=O)CCC(=O)Nc1ccccn1)c1ccccc1C` (stereo unspecified), the Potency was inconclusive: 17.8 µM [inhibitor, partial curve, poor fit].
In the case of `COc1cc(-c2noc(CN3CCN(c4cccc(Cl)c4)CC3)n2)cc(OC)c1OC`, the Potency is reported as “inactive”.
In the case of `CCCCOc1ccc(S(=O)(=O)N2CCN(C)CC2)cc1`, the Potency is reported as inconclusive: 1.41 µM [activator, partial curve, poor fit].
In the case of `CCOC(=O)C1=C(C)NC(C)=C(C(=O)OCC)C1/C=C/c1ccccc1OC`, the Potency is reported as inconclusive: 35.5 µM [inhibitor, partial curve, poor fit].
With `Cc1cnc(C(=O)Nc2nnc(C)s2)cn1` the Potency was “inactive”.
With `Cc1cc(C)cc(NC(=O)C(Nc2ccccc2)c2ccccc2)c1` (stereo unspecified) the Potency was inconclusive: 0.291 µM [inhibitor, full curve, poor fit].
With `Cc1ccccc1CC(=O)N1CCN(C(=O)C2CCCO2)CC1` (stereo unspecified) the Potency was “inactive”.
For `CC(c1ccon1)N(C)C(=O)CCc1nnc(CCCCc2ccccc2)o1` (stereo unspecified), the Potency was “inactive”.
With `CCN1CCCC1CN(Cc1cc2ccc(C)cc2[nH]c1=O)C(=S)Nc1ccc(OC)cc1OC` (stereo unspecified) the Potency was inconclusive: 7.08 µM [inhibitor, partial curve, poor fit].
For `Nc1ccc2nc(SCC(=O)Nc3ccc(N4CCOCC4)c(Cl)c3)sc2c1`, the Potency was inconclusive: 1.26 µM [activator, single point].
In the case of `O=c1c2cc(Br)ccc2nc2n1CCCCC2`, the Potency is reported as inconclusive: 32.6 µM [inhibitor, single point].
For `Cc1cc(C)n(CC(=O)NCc2cc(-c3nn(C)c(=O)c4ccccc34)ccc2C)n1`, the Potency was inconclusive: 14.1 µM [inhibitor, single point].
In the case of `COc1ccccc1N1CCN(C(=O)c2ccc(Cl)c(S(=O)(=O)N3CCCC3)c2)CC1`, the Potency is reported as inconclusive: 35.5 µM [inhibitor, single point].
For `CC(=O)Nc1cccc(-c2nc3ccc(NC(C)=O)cc3[nH]2)c1`, the Potency was inconclusive: 22.4 µM [inhibitor, single point].
With `Fc1ccc(CSc2nc3ncccc3[nH]2)cc1` the Potency was inconclusive: 25.1 µM [inhibitor, single point].
For `CCOc1ccc(-n2cc(C(=O)N3CCCCCC3)c3cc(OC)c(OC)cc3c2=O)cc1`, the Potency was “inactive”.
In the case of `CCN(CC)CCNC(=O)c1cc(-c2ccc(Br)s2)nc2ccccc12`, the Potency is reported as inconclusive: 25.1 µM [inhibitor, single point].
For `COc1ccc(N=c2oc3c(OC)cccc3cc2C(=O)NCc2ccco2)cc1OC`, the Potency was inconclusive: 8.2 µM [inhibitor, partial curve, poor fit].
In the case of `Cc1ccccc1OCC(=O)Nc1ccccc1-c1ccccc1NC(=O)COc1ccccc1C`, the Potency is reported as inconclusive: 20.6 µM [inhibitor, single point].
In the case of `Cc1[nH]n(-c2ccccc2)c(=O)c1N=Nc1ccccc1`, the Potency is reported as “inactive”.
In the case of `CCOc1ccccc1OCCn1ncc2ccc(OC)c(OC)c2c1=O`, the Potency is reported as “inactive”.
With `COc1cccc(C2=C[C@H](c3ccc(N(C)C)cc3)n3nnnc3N2)c1` the Potency was inconclusive: 0.316 µM [inhibitor, partial curve, poor fit].
For `N#C/C(=C\c1cccc(Br)c1)C(=O)N1CCCCC1`, the Potency was inconclusive: 35.5 µM [inhibitor, single point].
In the case of `Cc1ccc(NC(=O)CSc2nc(=O)n(CCCN3CCOCC3)c3c2CCCC3)cc1F`, the Potency is reported as inconclusive: 15.8 µM [inhibitor, single point].
With `CS/C(N)=N/N=C/c1ccc2c(c1)OCO2` the Potency was inconclusive: 3.55 µM [activator, partial curve, poor fit].
With `COc1ccc(-c2cc(-c3cc(F)ccc3O)[nH]n2)cc1OC` the Potency was inconclusive: 2.06 µM [activator, partial curve].
With `COc1ccc(NC(=O)c2ccccn2)cc1` the Potency was inconclusive: 5.62 µM [inhibitor, full curve, poor fit].
With `CCN(CC)CCNC(=O)C1CCN(c2cc(C)nc3c(-c4ccc(Cl)cc4)c(C)nn23)CC1` the Potency was inconclusive: 7.08 µM [activator, partial curve, poor fit].
With `O=c1[nH]c(=O)n(Cc2ccco2)c2c1C(C(F)(F)F)(C(F)(F)F)N=C(CCc1ccccc1)N2` the Potency was inconclusive: 29.1 µM [inhibitor, single point].
In the case of `O=Cc1ccc(OCc2cccc(C(F)(F)F)c2)cc1O`, the Potency is reported as inconclusive: 25.1 µM [inhibitor, single point].
For `COc1ccc(-c2cn3nc4c(nc3n2)CCCC4)cc1`, the Potency was active: 5.62 µM.
In the case of `O=C(Nc1ccc2c(c1)OCCO2)C1CCN(C(=O)c2ccc(F)cc2)CC1`, the Potency is reported as inconclusive: 6.51 µM [activator, single point].
With `Cc1ccccc1S(=O)(=O)Cc1ccc(C(=O)N2CCN(c3ccc(F)cc3)CC2)o1` the Potency was inconclusive: 16.4 µM [inhibitor, partial curve, poor fit].
In the case of `COc1ccc2c(c1OC)C(=O)N(c1ccc(C)cc1)C2`, the Potency is reported as inconclusive: 31.6 µM [inhibitor, single point].
For `CC1=C(C)C(=O)C(N2CCOCC2)=CC1=O`, the Potency was “inactive”.
